{
  "source": "patent US5284847A",
  "about": "“Thieno pyrazine diones, their preparation and use” (Novo Nordisk A/S, priority 1991, dated 1994)",
  "origin": "cited, not measured here",
  "system": "glycine site (modulatory site allosterically coupled to the NMDA ionophore complex)",
  "conditions": "literature, in words; cited from earlier work",
  "note": "For at least one compound, name, drawing or mass did not settle the structure.",
  "data": [
    {"smiles": "O=C(O)c1nc2cc(Cl)c(Cl)cc2nc1O", "note": "[6,7-dichloro-3-hydroxy-quinoxaline-2-carboxylate]", "values": [
      {"measurement": "activity at the glycine site", "result": "quite strong antagonists"}
    ]}
  ]
}
